Measurements from paper PMC12443605.
These are yes or no findings as the source states them, for the method shown. Binding seen in cells or lysates may run through a third protein. Some results given as binding are weak or reduced against the parent protein; the word gives no strength.

Amino acid sequences for entries named in this document (tags omitted).
UniProt Q12929: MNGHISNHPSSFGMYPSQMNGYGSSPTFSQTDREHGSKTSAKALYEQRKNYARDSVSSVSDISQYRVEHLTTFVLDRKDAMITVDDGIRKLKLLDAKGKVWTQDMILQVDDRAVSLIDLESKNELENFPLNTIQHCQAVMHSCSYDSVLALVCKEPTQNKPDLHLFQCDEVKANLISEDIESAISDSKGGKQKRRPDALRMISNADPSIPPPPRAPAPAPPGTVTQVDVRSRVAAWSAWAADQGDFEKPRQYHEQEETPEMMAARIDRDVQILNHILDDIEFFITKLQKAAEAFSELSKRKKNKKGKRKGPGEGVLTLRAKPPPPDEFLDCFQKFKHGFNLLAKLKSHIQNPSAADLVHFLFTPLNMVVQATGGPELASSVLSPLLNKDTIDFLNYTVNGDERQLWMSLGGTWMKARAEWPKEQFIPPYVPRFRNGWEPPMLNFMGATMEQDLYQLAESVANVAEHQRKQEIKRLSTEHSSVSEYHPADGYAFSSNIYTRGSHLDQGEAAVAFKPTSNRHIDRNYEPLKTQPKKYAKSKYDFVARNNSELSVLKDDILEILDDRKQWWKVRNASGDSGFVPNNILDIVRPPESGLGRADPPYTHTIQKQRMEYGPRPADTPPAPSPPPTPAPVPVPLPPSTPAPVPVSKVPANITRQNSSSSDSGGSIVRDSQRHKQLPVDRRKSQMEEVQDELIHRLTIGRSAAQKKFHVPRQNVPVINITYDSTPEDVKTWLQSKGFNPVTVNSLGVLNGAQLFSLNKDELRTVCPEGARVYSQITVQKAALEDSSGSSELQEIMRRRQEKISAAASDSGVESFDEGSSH

Molecular target: T1, USP4 (human (endogenous in HEK293)) (UniProt Q13107)
T1 sequence: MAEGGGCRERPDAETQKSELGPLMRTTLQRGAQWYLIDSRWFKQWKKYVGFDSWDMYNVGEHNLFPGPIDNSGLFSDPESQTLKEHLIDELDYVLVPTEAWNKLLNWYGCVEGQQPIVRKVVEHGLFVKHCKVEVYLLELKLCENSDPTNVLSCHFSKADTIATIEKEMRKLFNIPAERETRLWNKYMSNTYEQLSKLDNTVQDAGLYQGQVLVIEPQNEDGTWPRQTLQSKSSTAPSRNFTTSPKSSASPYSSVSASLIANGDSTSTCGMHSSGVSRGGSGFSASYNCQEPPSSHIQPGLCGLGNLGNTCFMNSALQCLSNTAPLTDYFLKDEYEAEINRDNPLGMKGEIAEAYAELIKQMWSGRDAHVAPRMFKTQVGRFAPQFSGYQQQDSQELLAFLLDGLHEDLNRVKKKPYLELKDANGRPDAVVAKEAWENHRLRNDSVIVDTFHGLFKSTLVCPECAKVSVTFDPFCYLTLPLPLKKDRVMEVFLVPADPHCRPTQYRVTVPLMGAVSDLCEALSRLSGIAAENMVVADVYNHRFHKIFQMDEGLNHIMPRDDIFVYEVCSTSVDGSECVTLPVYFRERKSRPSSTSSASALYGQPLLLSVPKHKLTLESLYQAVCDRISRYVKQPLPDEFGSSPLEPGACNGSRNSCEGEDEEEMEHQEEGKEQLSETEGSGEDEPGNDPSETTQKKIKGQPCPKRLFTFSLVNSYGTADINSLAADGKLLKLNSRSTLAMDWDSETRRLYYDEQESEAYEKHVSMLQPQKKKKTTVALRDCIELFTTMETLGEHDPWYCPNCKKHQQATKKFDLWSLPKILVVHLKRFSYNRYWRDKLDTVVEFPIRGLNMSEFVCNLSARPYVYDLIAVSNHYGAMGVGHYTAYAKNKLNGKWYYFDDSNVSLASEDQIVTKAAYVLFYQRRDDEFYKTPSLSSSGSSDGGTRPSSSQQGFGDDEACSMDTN
Experiment: co-IP; HEK293 lysate (50 mM Tris-HCl pH 6.7, 150 mM NaCl, 1% NP40, 0.25% sodium deoxycholate, 1 mM EDTA) incubated with anti-USP4 antibody or control normal rabbit IgG, µMACS MicroBeads and columns; western blot with antibodies to USP4 and EPS8

## EPS8 (from UniProt Q12929 1-822)
  binding: binds
